No constants are given. Whether binding was seen depends on the method and setting. In cells and extracts the contact can be indirect. Some entries that bind do so weakly or less than the wild type. For part of these data: Where a sequence is shown, tags or fusion partners need not be part of it.
Assays:
[1] = biological target: T1, TRPS1, ectopically overexpressed in MDA-MB-231 cells (UniProt Q9UHF7); assay: co-IP; Co-IP from MDA-MB-231 cells with ectopically overexpressed TRPS1; western blot
T1 sequence: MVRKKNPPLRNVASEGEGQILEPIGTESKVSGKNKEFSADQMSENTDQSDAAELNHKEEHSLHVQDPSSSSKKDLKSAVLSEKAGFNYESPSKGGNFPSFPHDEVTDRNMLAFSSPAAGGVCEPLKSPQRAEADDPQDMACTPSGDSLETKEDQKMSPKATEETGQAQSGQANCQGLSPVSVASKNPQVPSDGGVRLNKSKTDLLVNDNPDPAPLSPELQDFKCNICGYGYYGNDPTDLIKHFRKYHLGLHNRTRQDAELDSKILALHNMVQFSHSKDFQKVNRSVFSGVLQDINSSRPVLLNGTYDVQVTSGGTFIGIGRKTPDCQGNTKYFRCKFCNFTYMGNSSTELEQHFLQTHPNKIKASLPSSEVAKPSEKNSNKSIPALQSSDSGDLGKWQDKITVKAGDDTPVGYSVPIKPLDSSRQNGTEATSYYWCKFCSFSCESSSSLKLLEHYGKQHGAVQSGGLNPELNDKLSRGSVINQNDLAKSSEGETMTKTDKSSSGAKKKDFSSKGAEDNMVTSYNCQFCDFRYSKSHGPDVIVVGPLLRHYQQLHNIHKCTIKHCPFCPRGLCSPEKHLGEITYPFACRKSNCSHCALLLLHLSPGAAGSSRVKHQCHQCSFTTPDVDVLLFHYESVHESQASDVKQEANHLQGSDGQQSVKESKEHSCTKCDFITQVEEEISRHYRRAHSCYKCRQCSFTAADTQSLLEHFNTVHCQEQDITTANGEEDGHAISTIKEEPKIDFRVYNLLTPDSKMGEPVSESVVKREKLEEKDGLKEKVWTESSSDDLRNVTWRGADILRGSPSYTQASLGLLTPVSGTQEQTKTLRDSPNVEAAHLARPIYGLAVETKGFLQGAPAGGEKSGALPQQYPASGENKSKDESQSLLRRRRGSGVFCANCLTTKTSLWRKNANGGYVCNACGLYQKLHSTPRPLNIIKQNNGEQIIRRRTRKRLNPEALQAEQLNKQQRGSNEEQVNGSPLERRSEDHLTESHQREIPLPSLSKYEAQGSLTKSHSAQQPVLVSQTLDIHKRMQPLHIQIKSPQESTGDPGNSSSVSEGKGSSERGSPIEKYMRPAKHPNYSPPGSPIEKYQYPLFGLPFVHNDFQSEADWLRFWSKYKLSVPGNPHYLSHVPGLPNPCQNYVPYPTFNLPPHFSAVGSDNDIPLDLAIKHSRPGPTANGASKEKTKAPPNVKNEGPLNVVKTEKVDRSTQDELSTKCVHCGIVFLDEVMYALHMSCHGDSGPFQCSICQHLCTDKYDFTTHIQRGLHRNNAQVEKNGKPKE

Chains of the proteins cited; added tags and fusions are not shown.
UniProt Q13547: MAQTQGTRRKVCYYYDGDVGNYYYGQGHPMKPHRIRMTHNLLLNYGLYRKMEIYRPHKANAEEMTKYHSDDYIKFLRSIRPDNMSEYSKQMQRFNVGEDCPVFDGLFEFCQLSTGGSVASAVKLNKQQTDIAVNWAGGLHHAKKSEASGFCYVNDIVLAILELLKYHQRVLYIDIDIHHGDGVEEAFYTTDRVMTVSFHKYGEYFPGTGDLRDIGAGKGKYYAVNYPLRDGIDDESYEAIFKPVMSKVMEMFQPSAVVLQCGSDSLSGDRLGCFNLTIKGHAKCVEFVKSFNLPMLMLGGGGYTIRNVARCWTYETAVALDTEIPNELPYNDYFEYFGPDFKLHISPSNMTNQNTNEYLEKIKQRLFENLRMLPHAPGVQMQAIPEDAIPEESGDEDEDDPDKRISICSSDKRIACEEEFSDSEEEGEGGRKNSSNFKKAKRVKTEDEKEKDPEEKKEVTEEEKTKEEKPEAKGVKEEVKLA
UniProt Q14839: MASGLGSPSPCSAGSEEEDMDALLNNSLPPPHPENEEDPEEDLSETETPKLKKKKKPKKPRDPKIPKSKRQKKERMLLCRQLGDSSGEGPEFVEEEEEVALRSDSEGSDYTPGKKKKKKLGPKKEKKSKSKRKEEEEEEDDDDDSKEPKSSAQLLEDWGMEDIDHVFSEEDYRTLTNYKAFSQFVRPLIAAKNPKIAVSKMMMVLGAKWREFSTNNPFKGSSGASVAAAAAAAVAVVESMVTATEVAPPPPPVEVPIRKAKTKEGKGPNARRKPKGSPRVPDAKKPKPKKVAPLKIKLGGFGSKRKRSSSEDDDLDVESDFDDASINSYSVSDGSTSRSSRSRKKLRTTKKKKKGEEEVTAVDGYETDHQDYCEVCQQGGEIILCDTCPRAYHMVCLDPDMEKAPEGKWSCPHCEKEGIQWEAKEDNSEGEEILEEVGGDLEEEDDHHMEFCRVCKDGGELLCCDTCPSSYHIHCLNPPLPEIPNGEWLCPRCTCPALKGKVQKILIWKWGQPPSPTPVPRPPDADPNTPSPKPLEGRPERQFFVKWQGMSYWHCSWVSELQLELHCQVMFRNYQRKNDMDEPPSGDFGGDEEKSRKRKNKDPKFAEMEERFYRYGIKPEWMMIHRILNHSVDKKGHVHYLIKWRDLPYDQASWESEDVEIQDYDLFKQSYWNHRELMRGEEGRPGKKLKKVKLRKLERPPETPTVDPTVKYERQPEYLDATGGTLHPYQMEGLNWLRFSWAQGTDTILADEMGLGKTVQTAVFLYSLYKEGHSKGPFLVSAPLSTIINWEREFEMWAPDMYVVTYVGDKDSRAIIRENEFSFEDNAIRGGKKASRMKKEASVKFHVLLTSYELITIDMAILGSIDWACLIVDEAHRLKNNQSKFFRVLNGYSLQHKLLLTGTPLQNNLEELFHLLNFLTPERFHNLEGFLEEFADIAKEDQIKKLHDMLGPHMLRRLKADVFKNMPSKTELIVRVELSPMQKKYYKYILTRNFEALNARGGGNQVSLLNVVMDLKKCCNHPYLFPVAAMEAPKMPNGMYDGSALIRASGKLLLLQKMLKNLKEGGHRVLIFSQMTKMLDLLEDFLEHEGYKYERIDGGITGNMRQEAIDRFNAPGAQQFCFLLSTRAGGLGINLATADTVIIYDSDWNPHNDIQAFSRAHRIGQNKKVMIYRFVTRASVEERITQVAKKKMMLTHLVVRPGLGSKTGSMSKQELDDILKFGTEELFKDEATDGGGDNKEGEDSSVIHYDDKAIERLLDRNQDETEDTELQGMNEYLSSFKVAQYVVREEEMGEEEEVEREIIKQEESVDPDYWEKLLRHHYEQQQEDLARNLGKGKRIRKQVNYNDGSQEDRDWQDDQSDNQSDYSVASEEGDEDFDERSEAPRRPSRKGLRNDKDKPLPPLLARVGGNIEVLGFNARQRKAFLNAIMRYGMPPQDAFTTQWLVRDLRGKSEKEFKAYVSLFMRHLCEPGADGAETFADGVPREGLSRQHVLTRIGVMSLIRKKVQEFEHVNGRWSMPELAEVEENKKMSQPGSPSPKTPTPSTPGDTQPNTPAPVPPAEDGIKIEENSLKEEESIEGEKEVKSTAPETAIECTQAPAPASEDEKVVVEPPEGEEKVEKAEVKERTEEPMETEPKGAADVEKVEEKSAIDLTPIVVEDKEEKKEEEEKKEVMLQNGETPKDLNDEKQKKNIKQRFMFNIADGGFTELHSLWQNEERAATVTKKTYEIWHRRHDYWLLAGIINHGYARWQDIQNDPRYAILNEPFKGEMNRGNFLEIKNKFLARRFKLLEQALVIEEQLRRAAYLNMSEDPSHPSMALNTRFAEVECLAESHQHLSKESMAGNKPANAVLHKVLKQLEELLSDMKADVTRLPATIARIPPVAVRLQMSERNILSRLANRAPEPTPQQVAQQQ
UniProt Q92769: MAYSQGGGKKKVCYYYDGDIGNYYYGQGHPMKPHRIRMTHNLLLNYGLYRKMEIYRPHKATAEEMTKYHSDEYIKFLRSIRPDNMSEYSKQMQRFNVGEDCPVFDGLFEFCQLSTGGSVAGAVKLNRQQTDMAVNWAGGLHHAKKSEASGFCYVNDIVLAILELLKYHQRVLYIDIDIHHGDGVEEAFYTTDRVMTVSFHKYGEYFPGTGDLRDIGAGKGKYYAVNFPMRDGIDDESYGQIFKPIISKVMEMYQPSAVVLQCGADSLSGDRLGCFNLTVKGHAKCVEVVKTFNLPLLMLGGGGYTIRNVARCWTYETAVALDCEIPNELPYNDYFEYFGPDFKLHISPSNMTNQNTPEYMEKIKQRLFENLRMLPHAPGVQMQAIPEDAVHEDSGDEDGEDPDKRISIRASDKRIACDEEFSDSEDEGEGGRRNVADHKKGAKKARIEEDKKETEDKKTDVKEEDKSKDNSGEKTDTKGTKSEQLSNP

[2] = biological target: T2, Transcriptional repressor GATA binding 1 (TRPS1), endogenous (human (endogenous in T47D and MCF7)) (UniProt Q9UHF7); assay: co-IP; endogenous Co-IP with anti-TRPS1 antibody (R&D systems) and Dynabeads Protein G, control polyclonal IgG; T47D and MCF7 cells; western blot
T2 sequence: T1 sequence

[3] = biological target: T3, Flag-tagged full-length TRPS1 (UniProt Q9UHF7); assay: co-IP; exogenous Co-IP: Flag-tagged TRPS1 or truncates transfected into 293T cells with PEI, lysed after 48 h, incubated with flag agarose; western blot of endogenous partners
T3 sequence: T1 sequence

Measured: binding

HDAC1 (from UniProt Q13547 1-482)
binds: [1] | [2] | [3]

CHD4 (chromodomain helicase DNA-binding protein 4) (from UniProt Q14839 1-1912)
binds: [1] | [2] | [3]

HDAC2 (from UniProt Q92769 1-488)
binds: [1] | [2] | [3]

Reference: publication PMC6299095
